Publication PMC3906007, “Discovery of a Small Molecule Agonist of Phosphatidylinositol 3-Kinase p110α That Reactivates Latent HIV-1” (PLoS ONE, 2014)

Legend:
Type in all cases: biochemical
Conditions in all cases: recombinant purified enzyme; 100 nM wortmannin + 5 µM compound
PI3K p110β = system: T1, PI3K p110β; test: PI3K activity assay (PIP3 production, Millipore kit) in combination with wortmannin, p110β
T1 construct: purchased Millipore (Billerica, MA)
Method: (§1) The production of phosphatidylinositol (3,4,5)-triphosphate (PIP3) by the four class I PI3K isoenzymes (p110 α, β, γ, δ) was assessed using the PI3 Kinase Activity/Inhibitor Assay Kit (Millipore, Billerica, MA) according to the manufacturer's instructions. This assay works on the principle that the PH domain of the protein GRP-1 binds PIP3 with high affinity and specificity. This protein binds to the glutathione plate and captures either the PIP3 generated as part of the kinase reaction or the biotinylated-PIP3 tracer included in the kit. The captured biotinylated-PIP3 is detected using streptavidin-HRP conjugate and a colorimetric read out (OD 450).
(§2) The class I PI3Ks are heterodimeric enzymes formed by association of a p110 catalytic subunit with a p85 regulatory subunit. There are 4 variants of the p110 catalytic subunit designated p110α, β, δ or γ [22]. […] Briefly, in this assay the PIP3 generated as part of the kinase reaction or the biotinylated-PIP3 tracer included in the kit is captured on a glutathione plate via its interaction with the pleckstrin homology (PH) domain of the glutathione S-transferase (GST)-fusion protein general receptor for phosphoinositides-1 (GRP-1). The captured biotinylated-PIP3 is then detected using a streptavidin-HRP conjugate and a colorimetric read out.

PI3K p110α = system: T2, PI3K p110α; test: PI3K activity assay (PIP3 production, Millipore kit) in combination with wortmannin, p110α
T2 construct: purchased Millipore (Billerica, MA)
Method: as §1, §2

PI3K p110γ = system: T3, PI3K p110γ; test: PI3K activity assay (PIP3 production, Millipore kit) in combination with wortmannin, p110γ
T3 construct: purchased Millipore (Billerica, MA)
Method: as §1, §2

PI3K p110δ = system: T4, PI3K p110δ; test: PI3K activity assay (PIP3 production, Millipore kit) in combination with wortmannin, p110δ
T4 construct: purchased Millipore (Billerica, MA)
Method: as §1, §2

O=C(CCCCCCC(=O)Nc1ccccc1)NO [SAHA, vorinostat, reference compound]
Agonist activity: effect on inhibition of PI3K p110β by wortmannin (PI3K p110β): activated | Agonist activity: effect on inhibition of PI3K p110α by wortmannin (PI3K p110α): acted as an agonist | Agonist activity: effect on inhibition of PI3K p110γ by wortmannin (PI3K p110γ): activated | Agonist activity: effect on inhibition of PI3K p110δ by wortmannin (PI3K p110δ): activated
